Test results published in US8354265B2, “Chemicals promoting the growth of N-acylhomoserine lactone-degrading bacteria” (Centre National de la Recherche Scientifique, priority 2007, dated 2013).
Some entries share one result that the patent states for a list of compounds. Some ranges recur; such a range may be that of the whole group of compounds.

Columns and labels:
[1] = tested on: bacteria recovered from the consortia; assay: NAHL production and inactivation by isolates recovered from the consortia, with rrs identification; type: cell-based
[2] = tested on: bacterial consortia from unplanted soil; assay: C6-HSL inactivation by bacterial consortia enriched from unplanted soil on the compound as sole carbon source; type: cell-based; settings: C6-HSL 25 μM at start; for C6-HSL signal inactivated by consortia: incubation time 5 hours; for introduced C6-HSL inactivated by consortia: incubation time 24 hours

O=C1CCCCCO1 [6CL, 6-caprolactone, reference compound]
abundance of NAHL-degrading bacteria in consortia [1]: 40-50%

O=C(O)CCCO [GHB, gamma-hydroxybutyrate]
C6-HSL signal inactivated by consortia [2]: more than 90%
introduced C6-HSL inactivated by consortia [2]: more than 90%

CC1CCC(=O)O1 (stereo not drawn) [GVL, gamma-valerolactone]
introduced C6-HSL inactivated by consortia [2]: more than 90%

O=C1CCCO1 [GBL, gamma-butyrolactone]
introduced C6-HSL inactivated by consortia [2]: more than 90%

CCC1CCC(=O)O1 (stereo not drawn) [GCL, gamma-caprolactone]
introduced C6-HSL inactivated by consortia [2]: more than 90%
abundance of NAHL-degrading bacteria in consortia [1]: 40-50%

OCC1CCCO1 (stereo not drawn) [THA, tetrahydrofurfuryl alcohol]
C6-HSL signal inactivated by consortia [2]: more than 90%
introduced C6-HSL inactivated by consortia [2]: more than 90%
